# Assay results as given in US6762174B1 (priority 1998, dated 2004).
# This continues a long series; more values of the same kind are listed elsewhere.
# Test system: MOPC-315 myeloma
# Assay: MOPC-315 Myeloma study #3: β-alethine ip day 0 (3 × 10^5 tumor cells)
smiles,measurement,setting,value
"NCCC(=O)NCCSSCCNC(=O)CCN [BT, β-alethine]",Animals Surviving,"BT 100 ng/kg, day 15",7
same,Animals Surviving,"BT 100 ng/kg, day 16",4
same,Animals Surviving,"BT 3 μg/kg, day 10",10
same,Animals Surviving,"BT 3 μg/kg, day 11",10
same,Animals Surviving,"BT 3 μg/kg, day 12",9
same,Animals Surviving,"BT 3 μg/kg, day 13",9
same,Animals Surviving,"BT 3 μg/kg, day 14",9
same,Animals Surviving,"BT 3 μg/kg, day 15",9
same,Animals Surviving,"BT 3 μg/kg, day 16",4
same,Animals Surviving,"BT 3 μg/kg, day 17",0
same,Animals Surviving,"BT 100 μg/kg, day 10",10
same,Animals Surviving,"BT 100 μg/kg, day 11",10
same,Animals Surviving,"BT 100 μg/kg, day 12",10
same,Animals Surviving,"BT 100 μg/kg, day 13",10
same,Animals Surviving,"BT 100 μg/kg, day 14",8
same,Animals Surviving,"BT 100 μg/kg, day 15",8
same,Animals Surviving,"BT 100 μg/kg, day 16",3
same,Animals Surviving,"BT 100 μg/kg, day 17",2
same,Animals Surviving,"BT 100 μg/kg, day 18",0
same,Animals Surviving,"BT 3 mg/kg, day 10",10
same,Animals Surviving,"BT 3 mg/kg, day 11",10
same,Animals Surviving,"BT 3 mg/kg, day 12",10
same,Animals Surviving,"BT 3 mg/kg, day 13",10
same,Animals Surviving,"BT 3 mg/kg, day 14",10
same,Animals Surviving,"BT 3 mg/kg, day 15",10
same,Animals Surviving,"BT 3 mg/kg, day 16",8
same,Animals Surviving,"BT 3 mg/kg, day 17",3
same,Animals Surviving,"BT 3 mg/kg, day 18",3
same,Animals Surviving,"BT 3 mg/kg, day 19",0
